According to the supplement of paper PMC8256030:
“And” between values parts separate entries of the source, which are not always exact repeats. Equal entries are not always repeated. The list shows a part of the results. Single values are uncertain here, since repeats match poorly.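 HEK293T cells were given each compound shortly before transfection with a reporter in which red mCherry is followed by the SARS-CoV-2 frameshift element and then GFP in the −1 frame, so GFP appears only after frameshifting.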

Key:
[1] = system: SARS-CoV-2 -1 PRF reporter mCherry-FSE-GFP(-1); assay: mCherry (red) intensity as percent of control; higher = higher upstream reporter expression; details: 10 µM; 24 h; HEK293T
[2] = system: SARS-CoV-2 -1 PRF reporter mCherry-FSE-GFP(-1); assay: percent effect, decrease of GFP/mCherry ratio (-1 PRF reporter) relative to controls; higher = stronger frameshift inhibition; details: 10 µM; 24 h; HEK293T

| SMILES | mCherry [1] | percent effect [2] |
| --- | --- | --- |
| Cc1ccc(S(=O)(=O)NC(=O)NN2CC3CCCC3C2)cc1 (stereo not drawn) [Gliclazide] | 82.2% | -5.91% |
| O=C(NCC(O)CO)c1c(I)c(C(=O)NCC(O)CO)c(I)c(N(CCO)C(=O)CO)c1I (stereo not drawn) [ioversol] | 121% | 1.99% |
| NCc1ccccc1CC(=O)N[C@@H]1C(=O)N2C(C(=O)O)=C(CSc3nnnn3CC(=O)O)CS[C@H]12 [Ceforanide] | 76.2% | -0.442% |
| CO[C@H]1C[C@@H]2CC[C@@H](C)[C@@](O)(O2)C(=O)C(=O)N2CCCC[C@H]2C(=O)O[C@H]([C@H](C)C[C@@H]2CC[C@@H](OC(=O)C(C)(CO)CO)[C@H](OC)C2)CC(=O)[C@H](C)/C=C(\C)[C@@H](O)[C@@H](OC)C(=O)[C@H](C)C[C@H](C)/C=C/C=C/C=C/1C [Torisel] | 96.1% | -5.09% |
| CNS(=O)(=O)Cc1ccc2[nH]cc(CCN(C)C)c2c1 [Sumatriptan Succinate] | 86.6% | -1.47% |
| CN(C)c1ccc2nc3ccc(=[N+](C)C)cc-3sc2c1 | 17.3% | 12.7% |
| NC(=O)N=Nc1ccc2ccccc2c1O [naftazone] | 57.4% | 0.0624% |
| CCC(C(=O)OCCN1CCOC(c2ccccc2)C1C)c1ccccc1 (stereo not drawn) [fenbutrazate] | 74.9% | -1.9% |
| CS(=O)(=O)c1ccc(C2=C(c3ccccc3)C(=O)OC2)cc1 [rofecoxib] | 102% and 84.8% | 1.26% and -2.83% |
| O=C1CC[C@@H](C(=O)N2CSC[C@H]2C(=O)O)N1 [pidotimod] | 110% | 0.529% |
| CCN1CCCC(OC(=O)C(c2ccccc2)c2ccccc2)C1 (stereo not drawn) [piperidolate] | 109% | -2.08% |
| CC#CCn1c(N2CCC[C@@H](N)C2)nc2c1c(=O)n(Cc1nc(C)c3ccccc3n1)c(=O)n2C | 82.4% | -5.84% |
| COc1ccccc1OCC(O)CN1CCN(CC(=O)Nc2c(C)cccc2C)CC1 (stereo not drawn) [ranolazine] | 76.3% and 78.4% | -1.91% and 5.04% |
| CCOC(=O)CN1CCN(C(=O)/C=C/c2cc(OC)c(OC)c(OC)c2)CC1 [cinepazet] | 69.5% | -4.11% |
| CN1CCN(C2=Nc3cc(F)ccc3Cc3ccccc32)CC1 [fluperlapine] | 48.1% | -6.23% |
| CN1CCN(C2=Nc3ccccc3Oc3ccc(Cl)cc32)CC1 [loxapine] | 106% | -3.41% |
| CC(C)(CO)[C@@H](O)C(=O)NCCC(=O)O [calcium pantothenate] | 102% | -4.13% |
| CC(C)NCC(O)COc1cccc2c1N(C(=O)c1cccnc1)CCC2 (stereo not drawn) [nicainoprol] | 95.8% | 0.00339% |
| CN1CCCN=C1/C=C/c1cccc(O)c1 | 106% | 0.449% |
| CO/N=C(\C(=O)N[C@@H]1C(=O)N2C(C(=O)O)=C(COC(N)=O)CS[C@H]12)c1ccco1 | 103% | -2.82% |
| C(=C(C1CCCCC1)C1CCCCC1)C1CCCCN1 (stereo not drawn) [hexadiline] | 78.8% | 0.134% |
| CN1[C@@H]2CC[C@H]1C[C@@H](OC(=O)c1c[nH]c3ccccc13)C2 | 108% | -1.65% |
| COc1ccc2nc(NC(=O)Nc3ccccc3)sc2c1 [frentizole] | 78% | -10.1% |
| COc1cc(Cl)nc(OC)n1 | 123% | -4.04% |
| COc1cc(C(=O)OCCCN2CCCN(CCCOC(=O)c3cc(OC)c(OC)c(OC)c3)CC2)cc(OC)c1OC [dilazep] | 43.7% | -4.52% |
| CCCCC(=O)N(Cc1ccc(-c2ccccc2-c2nnn[nH]2)cc1)[C@H](C(=O)O)C(C)C [valsartan] | 68% | -5.13% |
| O=c1[nH]c(=O)c2ccccc2o1 [carsalam] | 130% | -3.77% |
| COc1nc(N)nc2c1ncn2[C@@H]1O[C@H](CO)[C@@H](O)[C@@H]1O | 79.6% | -2.1% |
| CCC1(CC)O[C@@H]2C[C@H]3[C@@H]4CCC5=CC(=O)C=C[C@]5(C)[C@@]4(F)[C@@H](O)C[C@]3(C)[C@]2(C(=O)CO)O1 [amcinafal] | 79.6% | -5.73% |

Already shown: entries from further up.

| SMILES | mCherry [1] | percent effect [2] |
| --- | --- | --- |
| Cc1ccc(S(=O)(=O)NC(=O)NN2CC3CCCC3C2)cc1 (stereo not drawn) [Gliclazide] | 82.2% | -5.91% |
| O=C(NCC(O)CO)c1c(I)c(C(=O)NCC(O)CO)c(I)c(N(CCO)C(=O)CO)c1I (stereo not drawn) [ioversol] | 121% | 1.99% |
